The other results are listed elsewhere or left out.
Compound: Cc1cc(ccc1-c1ccccc1)C(=O)N1CCCN(CC1)C(=O)CCl [compound 10]
Experiment: probe-labelled cysteine peptide fold change vs DMSO (competition) (log2 fold change); higher = less target engagement (more negative = stronger competition)
Details: 10 µM; THP-1; incubation time: 4 h
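Further: competitive profiling in live THP-1 cells: cysteine peptides tagged with an iodoacetamide desthiobiotin (IA-DTB) probe, intensity after compound treatment relative to DMSO-treated cells.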

Sequences of proteins named here, by UniProt entry; tags and fusion partners are left off. A change or cut given only in a name is not applied to a line headed by its entry.
UniProt Q9H7B2: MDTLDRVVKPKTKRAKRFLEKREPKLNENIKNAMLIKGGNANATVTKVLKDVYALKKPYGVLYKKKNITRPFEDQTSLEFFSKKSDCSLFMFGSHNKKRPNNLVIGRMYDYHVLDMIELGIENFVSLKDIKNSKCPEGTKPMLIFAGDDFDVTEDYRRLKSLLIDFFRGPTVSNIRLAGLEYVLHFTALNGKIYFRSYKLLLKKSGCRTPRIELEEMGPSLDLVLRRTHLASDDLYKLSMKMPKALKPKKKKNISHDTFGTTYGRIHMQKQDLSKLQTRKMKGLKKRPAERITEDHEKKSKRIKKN
UniProt O75818: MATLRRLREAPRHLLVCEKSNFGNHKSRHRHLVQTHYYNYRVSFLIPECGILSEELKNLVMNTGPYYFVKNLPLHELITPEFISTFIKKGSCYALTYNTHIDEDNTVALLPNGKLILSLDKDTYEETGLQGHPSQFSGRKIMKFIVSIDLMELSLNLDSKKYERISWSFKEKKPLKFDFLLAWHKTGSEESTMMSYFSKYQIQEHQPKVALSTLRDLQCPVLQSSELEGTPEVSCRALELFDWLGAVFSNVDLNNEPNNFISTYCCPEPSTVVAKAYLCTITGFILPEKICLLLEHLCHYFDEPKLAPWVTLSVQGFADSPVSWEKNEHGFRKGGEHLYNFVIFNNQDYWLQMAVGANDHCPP
UniProt Q13464: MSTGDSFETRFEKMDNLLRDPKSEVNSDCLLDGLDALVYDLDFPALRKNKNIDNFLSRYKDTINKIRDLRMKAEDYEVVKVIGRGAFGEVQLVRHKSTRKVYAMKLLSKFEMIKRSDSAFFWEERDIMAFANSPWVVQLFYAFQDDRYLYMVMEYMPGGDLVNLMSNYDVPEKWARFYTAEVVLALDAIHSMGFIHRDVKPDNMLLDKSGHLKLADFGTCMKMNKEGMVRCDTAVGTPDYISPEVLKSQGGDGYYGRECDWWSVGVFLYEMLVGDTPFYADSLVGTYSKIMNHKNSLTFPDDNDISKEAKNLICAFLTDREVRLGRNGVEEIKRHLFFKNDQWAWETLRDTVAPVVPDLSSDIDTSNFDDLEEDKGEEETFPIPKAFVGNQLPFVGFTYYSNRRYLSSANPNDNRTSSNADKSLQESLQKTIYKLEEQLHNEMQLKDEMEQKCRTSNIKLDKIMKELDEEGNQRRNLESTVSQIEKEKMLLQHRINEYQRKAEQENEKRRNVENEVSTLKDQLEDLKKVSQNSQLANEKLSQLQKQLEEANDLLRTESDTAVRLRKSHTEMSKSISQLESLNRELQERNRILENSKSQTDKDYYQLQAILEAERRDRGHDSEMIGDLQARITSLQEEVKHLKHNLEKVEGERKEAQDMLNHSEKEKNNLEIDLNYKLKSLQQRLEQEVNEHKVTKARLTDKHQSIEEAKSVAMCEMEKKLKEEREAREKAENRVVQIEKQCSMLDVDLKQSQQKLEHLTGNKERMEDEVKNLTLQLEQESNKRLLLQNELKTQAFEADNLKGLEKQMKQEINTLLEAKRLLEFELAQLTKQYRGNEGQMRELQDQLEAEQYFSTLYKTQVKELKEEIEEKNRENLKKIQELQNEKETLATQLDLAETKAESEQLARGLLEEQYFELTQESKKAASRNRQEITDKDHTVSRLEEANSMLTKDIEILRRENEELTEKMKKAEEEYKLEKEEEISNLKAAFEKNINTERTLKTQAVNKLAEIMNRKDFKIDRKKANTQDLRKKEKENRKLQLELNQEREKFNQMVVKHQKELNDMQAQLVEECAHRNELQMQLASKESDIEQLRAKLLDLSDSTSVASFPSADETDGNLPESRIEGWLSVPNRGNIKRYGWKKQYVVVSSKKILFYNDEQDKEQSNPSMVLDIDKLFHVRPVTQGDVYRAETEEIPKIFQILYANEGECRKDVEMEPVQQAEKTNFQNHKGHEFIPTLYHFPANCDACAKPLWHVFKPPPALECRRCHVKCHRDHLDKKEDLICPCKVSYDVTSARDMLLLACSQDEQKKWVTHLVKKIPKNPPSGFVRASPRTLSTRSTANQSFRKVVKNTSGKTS
UniProt Q5VTR2, whole entry, looked up: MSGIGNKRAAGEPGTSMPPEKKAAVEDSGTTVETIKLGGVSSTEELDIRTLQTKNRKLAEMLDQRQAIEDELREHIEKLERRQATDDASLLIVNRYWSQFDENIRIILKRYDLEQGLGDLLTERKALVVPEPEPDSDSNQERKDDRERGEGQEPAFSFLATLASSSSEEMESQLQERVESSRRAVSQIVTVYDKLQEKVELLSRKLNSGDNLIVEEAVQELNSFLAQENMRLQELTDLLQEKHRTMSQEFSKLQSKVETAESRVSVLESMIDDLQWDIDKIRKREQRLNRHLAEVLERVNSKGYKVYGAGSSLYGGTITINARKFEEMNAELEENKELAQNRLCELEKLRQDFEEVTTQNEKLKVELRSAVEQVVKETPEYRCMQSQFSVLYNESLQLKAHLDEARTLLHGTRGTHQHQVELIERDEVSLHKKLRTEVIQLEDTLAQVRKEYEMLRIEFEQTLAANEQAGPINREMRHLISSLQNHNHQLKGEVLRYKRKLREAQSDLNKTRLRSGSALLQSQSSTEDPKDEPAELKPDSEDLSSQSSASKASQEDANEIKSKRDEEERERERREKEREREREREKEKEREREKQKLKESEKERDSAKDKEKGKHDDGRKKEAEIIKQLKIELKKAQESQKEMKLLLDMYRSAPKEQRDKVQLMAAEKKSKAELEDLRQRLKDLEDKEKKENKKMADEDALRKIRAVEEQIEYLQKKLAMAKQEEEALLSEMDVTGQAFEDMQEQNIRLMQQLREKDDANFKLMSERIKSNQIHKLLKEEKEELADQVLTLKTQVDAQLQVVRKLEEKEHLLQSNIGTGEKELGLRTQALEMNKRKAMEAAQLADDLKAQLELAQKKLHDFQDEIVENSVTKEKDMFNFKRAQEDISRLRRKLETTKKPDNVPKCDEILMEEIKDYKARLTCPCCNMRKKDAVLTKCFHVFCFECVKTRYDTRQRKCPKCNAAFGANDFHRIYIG
UniProt P35244: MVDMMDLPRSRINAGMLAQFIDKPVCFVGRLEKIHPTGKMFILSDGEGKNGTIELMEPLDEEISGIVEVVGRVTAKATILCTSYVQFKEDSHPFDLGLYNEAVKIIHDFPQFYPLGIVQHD
UniProt P04843: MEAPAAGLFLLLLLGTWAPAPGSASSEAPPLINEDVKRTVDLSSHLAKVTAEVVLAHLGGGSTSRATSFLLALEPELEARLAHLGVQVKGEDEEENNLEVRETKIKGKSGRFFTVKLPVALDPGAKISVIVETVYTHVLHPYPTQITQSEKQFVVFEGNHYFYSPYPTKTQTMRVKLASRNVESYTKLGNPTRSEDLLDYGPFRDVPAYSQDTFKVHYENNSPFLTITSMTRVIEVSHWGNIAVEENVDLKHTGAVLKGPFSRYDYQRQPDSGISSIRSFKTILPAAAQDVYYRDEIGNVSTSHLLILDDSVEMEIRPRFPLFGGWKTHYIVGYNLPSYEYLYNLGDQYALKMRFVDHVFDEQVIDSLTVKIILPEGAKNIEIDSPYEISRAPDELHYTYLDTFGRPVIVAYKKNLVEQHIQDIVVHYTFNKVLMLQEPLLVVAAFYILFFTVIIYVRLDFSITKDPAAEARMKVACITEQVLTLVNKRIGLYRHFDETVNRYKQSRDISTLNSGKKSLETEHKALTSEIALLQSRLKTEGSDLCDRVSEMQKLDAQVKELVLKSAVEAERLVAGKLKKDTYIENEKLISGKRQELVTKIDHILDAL
UniProt P27694, whole entry, looked up: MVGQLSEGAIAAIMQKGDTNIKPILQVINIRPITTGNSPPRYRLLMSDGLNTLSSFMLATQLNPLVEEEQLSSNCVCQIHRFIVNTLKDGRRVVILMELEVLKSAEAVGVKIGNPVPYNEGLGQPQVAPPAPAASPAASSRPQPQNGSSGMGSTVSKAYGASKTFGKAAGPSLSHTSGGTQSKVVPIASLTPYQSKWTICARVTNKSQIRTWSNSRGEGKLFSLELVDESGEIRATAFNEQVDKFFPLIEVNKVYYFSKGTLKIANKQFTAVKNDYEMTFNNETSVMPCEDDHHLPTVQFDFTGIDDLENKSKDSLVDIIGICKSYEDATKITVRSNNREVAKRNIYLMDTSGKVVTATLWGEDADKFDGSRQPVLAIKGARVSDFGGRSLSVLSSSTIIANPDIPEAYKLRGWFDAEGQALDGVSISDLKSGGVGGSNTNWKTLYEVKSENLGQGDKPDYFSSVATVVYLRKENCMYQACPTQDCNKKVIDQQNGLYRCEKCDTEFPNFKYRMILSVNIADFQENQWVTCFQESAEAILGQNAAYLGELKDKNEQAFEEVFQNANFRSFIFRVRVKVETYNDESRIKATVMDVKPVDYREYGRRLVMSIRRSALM
UniProt O75116: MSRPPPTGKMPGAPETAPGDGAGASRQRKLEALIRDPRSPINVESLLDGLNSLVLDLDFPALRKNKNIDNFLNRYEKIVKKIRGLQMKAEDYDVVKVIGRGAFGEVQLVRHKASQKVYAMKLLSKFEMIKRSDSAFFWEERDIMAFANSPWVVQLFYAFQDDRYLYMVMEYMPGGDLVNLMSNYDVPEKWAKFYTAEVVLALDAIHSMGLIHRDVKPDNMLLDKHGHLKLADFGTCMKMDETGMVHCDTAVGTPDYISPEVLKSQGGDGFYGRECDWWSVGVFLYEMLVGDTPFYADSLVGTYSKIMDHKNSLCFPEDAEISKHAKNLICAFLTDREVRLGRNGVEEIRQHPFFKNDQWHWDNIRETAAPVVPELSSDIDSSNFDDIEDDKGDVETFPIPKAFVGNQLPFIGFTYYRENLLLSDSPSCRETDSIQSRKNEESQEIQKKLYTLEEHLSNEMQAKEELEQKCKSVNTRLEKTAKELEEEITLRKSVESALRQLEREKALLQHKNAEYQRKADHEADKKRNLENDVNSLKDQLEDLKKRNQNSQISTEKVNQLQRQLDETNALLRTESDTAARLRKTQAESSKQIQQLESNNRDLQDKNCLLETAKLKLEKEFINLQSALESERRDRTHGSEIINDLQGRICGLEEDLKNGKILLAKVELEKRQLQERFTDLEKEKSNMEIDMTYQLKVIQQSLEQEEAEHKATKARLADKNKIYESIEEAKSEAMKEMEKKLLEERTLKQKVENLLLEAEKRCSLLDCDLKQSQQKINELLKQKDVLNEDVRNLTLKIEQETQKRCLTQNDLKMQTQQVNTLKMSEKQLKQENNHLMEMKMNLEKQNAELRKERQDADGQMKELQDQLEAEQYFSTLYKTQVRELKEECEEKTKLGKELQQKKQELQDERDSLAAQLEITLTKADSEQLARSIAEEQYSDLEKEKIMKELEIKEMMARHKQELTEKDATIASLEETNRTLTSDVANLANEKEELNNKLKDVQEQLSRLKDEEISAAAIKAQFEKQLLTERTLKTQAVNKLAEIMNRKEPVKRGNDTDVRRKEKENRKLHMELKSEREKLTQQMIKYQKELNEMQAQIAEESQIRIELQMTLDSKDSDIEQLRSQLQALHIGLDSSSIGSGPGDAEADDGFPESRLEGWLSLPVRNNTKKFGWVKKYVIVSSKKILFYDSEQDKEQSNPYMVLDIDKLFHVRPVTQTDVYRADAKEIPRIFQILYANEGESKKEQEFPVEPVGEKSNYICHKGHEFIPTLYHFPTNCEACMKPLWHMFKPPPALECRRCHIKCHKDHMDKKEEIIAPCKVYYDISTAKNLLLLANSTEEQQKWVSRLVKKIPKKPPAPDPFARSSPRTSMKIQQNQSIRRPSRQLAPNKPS
UniProt Q5W0B1: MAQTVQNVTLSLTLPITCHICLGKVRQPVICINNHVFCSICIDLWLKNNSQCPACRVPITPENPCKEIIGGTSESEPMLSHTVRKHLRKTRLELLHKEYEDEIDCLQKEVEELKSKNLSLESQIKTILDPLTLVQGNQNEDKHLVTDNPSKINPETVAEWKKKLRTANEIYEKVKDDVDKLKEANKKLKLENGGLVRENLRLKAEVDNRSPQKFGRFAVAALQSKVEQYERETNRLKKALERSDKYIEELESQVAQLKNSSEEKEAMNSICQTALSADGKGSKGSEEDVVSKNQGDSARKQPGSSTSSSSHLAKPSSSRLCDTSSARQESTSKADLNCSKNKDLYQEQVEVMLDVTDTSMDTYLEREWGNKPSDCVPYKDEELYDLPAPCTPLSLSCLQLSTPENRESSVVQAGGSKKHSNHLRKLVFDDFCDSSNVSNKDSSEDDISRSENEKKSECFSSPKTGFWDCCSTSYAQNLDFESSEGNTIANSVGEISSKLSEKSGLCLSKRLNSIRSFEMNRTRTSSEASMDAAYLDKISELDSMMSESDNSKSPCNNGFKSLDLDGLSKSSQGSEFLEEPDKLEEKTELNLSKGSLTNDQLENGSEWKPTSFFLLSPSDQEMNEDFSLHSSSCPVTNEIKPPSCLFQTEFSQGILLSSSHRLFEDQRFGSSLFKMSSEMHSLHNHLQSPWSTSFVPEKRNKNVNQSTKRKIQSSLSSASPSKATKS

Target | probe-labelled cysteine peptide fold change
RNPEP_Q9H4A4_151_VGEGPGVCWLAPEQTAGKK (UniProt Q9H4A4) | 0.0798
RPL8_P62917_90_RTELFIAAEGIHTGQFVYCGK (UniProt P62917) | 0.00526
RNF213_Q63HN8_2868_TLHPLLEDGCIEDDPAPHK (UniProt Q63HN8) | -0.295
RNH1_P13489_30_WAELLPLLQQCQVVR (UniProt P13489) | 0.0863
RPL37_P61927_19_THTLCR (UniProt P61927) | 0.0667
RPF2_Q9H7B2_135_CPEGTKPMLIFAGDDFDVTEDYRR (UniProt Q9H7B2) | -0.129
RP2_O75695_147_FGCFQWYYPELAFQFK (UniProt O75695) | 0.168
RPL37A_P61513_60_RAVGIWHCGSCMK (UniProt P61513) | -0.114
RPP40_O75818_298_ICLLLEHLCHYFDEPK (UniProt O75818) | 0.149
RNH1_P13489_273+277_GCGDLCR (UniProt P13489) | -0.129
ROCK1_Q13464_1245_GHEFIPTLYHFPANCDACAK (UniProt Q13464) | 0.157
RNH1_P13489_95+102_IQKLSLQNCCLTGAGCGVLSSTLR (UniProt P13489) | 0.0329
RNF20_Q5VTR2_945_CFHVFCFECVK (UniProt Q5VTR2) | 0.148
RPA3_P35244_26_INAGMLAQFIDKPVCFVGR (UniProt P35244) | -0.0236
RPN1_P04843_477_VACITEQVLTLVNKR (UniProt P04843) | -0.189
RNF213_Q63HN8_3192_SIVEELCAWVEK (UniProt Q63HN8) | 0.159
RNF220_Q5VTB9_382_GSGFIMCSGK (UniProt Q5VTB9) | -0.344
RPA1_P27694_503_CDTEFPNFK (UniProt P27694) | -0.123
RNF31_Q96EP0_747_HITDMVCPACGRPDLTDDTQLLSYFSTLDIQLR (UniProt Q96EP0) | 0.212

Target | probe-labelled cysteine peptide fold change
RNF213_Q63HN8_1805_CLPAFLPDCLDLETLGHCLAHLAGMGGSPVER (UniProt Q63HN8) | -0.0197
RPL27A_P46776_70_RNQSFCPTVNLDK (UniProt P46776) | -0.145
RPF2_Q9H7B2_87_KSDCSLFMFGSHNK (UniProt Q9H7B2) | 0.0597
RPL4_P36578_208_RGPCIIYNEDNGIIK (UniProt P36578) | -0.185
ROCK2_O75116_649_ICGLEEDLK (UniProt O75116) | 0.0103
RPL23_P62829_125_ECADLWPR (UniProt P62829) | -0.0945
RPL3_P39023_114_TVFAEHISDECKR (UniProt P39023) | -0.0657
RNF219_Q5W0B1_105_EYEDEIDCLQK (UniProt Q5W0B1) | 0.0268
RNPEP_Q9H4A4_85_CLEPEGAAELRLDSHPCLEVTAAALR (UniProt Q9H4A4) | -0.347
RNF41_Q9H4P4_106_LDNLMSHLSDCEHNPK (UniProt Q9H4P4) | 0.0417
RPL3_P39023_336_GCVVGTK (UniProt P39023) | -0.0479
RNF213_Q63HN8_1748_ASVGCGSEAAR (UniProt Q63HN8) | 0.00252
RPL11_P62913_21_KLCLNICVGESGDR (UniProt P62913) | -0.0264
RNH1_P13489_305+313_LLCETLLEPGCQLESLWVK (UniProt P13489) | -0.0785
RNH1_P13489_277_GCGDLCR (UniProt P13489) | -0.555
RPL12_P30050_17_CTGGEVGATSALAPK (UniProt P30050) | -0.0136
RNH1_P13489_96_LSLQNCCLTGAGCGVLSSTLR (UniProt P13489) | -0.12
RNF41_Q9H4P4_134_DELPNHNCIK (UniProt Q9H4P4) | 0.0894
RNF214_Q8ND24_655_SSHAPATCK (UniProt Q8ND24) | 0.22

Same assay, conditions: 50 µM; THP-1; incubation time: 4 h

Target | probe-labelled cysteine peptide fold change
RNPEP_Q9H4A4_151_VGEGPGVCWLAPEQTAGKK (UniProt Q9H4A4) | -0.219
RPL8_P62917_90_RTELFIAAEGIHTGQFVYCGK (UniProt P62917) | 0.00527
RNF213_Q63HN8_2868_TLHPLLEDGCIEDDPAPHK (UniProt Q63HN8) | 0.0533
RNH1_P13489_30_WAELLPLLQQCQVVR (UniProt P13489) | 0.0624
RPL37_P61927_19_THTLCR (UniProt P61927) | -0.37
RPF2_Q9H7B2_135_CPEGTKPMLIFAGDDFDVTEDYRR (UniProt Q9H7B2) | 0.175
RP2_O75695_147_FGCFQWYYPELAFQFK (UniProt O75695) | 0.271
RPL37A_P61513_60_RAVGIWHCGSCMK (UniProt P61513) | -0.633
RPP40_O75818_298_ICLLLEHLCHYFDEPK (UniProt O75818) | 0.403
RNH1_P13489_273+277_GCGDLCR (UniProt P13489) | -0.472
ROCK1_Q13464_1245_GHEFIPTLYHFPANCDACAK (UniProt Q13464) | -0.00132
RNH1_P13489_95+102_IQKLSLQNCCLTGAGCGVLSSTLR (UniProt P13489) | -0.0215
RNF20_Q5VTR2_945_CFHVFCFECVK (UniProt Q5VTR2) | 0.36
RPA3_P35244_26_INAGMLAQFIDKPVCFVGR (UniProt P35244) | -0.0387
RPN1_P04843_477_VACITEQVLTLVNKR (UniProt P04843) | -0.7
RNF213_Q63HN8_3192_SIVEELCAWVEK (UniProt Q63HN8) | 0.352
RNF220_Q5VTB9_382_GSGFIMCSGK (UniProt Q5VTB9) | -0.436
RPA1_P27694_503_CDTEFPNFK (UniProt P27694) | -0.574
RNF31_Q96EP0_747_HITDMVCPACGRPDLTDDTQLLSYFSTLDIQLR (UniProt Q96EP0) | 0.0278

Target | probe-labelled cysteine peptide fold change
RNF213_Q63HN8_1805_CLPAFLPDCLDLETLGHCLAHLAGMGGSPVER (UniProt Q63HN8) | 0.00948
RPL27A_P46776_70_RNQSFCPTVNLDK (UniProt P46776) | -0.242
RPF2_Q9H7B2_87_KSDCSLFMFGSHNK (UniProt Q9H7B2) | 0.0264
RPL4_P36578_208_RGPCIIYNEDNGIIK (UniProt P36578) | -0.108
ROCK2_O75116_649_ICGLEEDLK (UniProt O75116) | 0.0506
RPL23_P62829_125_ECADLWPR (UniProt P62829) | -0.0853
RPL3_P39023_114_TVFAEHISDECKR (UniProt P39023) | -0.293
RNF219_Q5W0B1_105_EYEDEIDCLQK (UniProt Q5W0B1) | 0.0444
RNPEP_Q9H4A4_85_CLEPEGAAELRLDSHPCLEVTAAALR (UniProt Q9H4A4) | -0.53
RNF41_Q9H4P4_106_LDNLMSHLSDCEHNPK (UniProt Q9H4P4) | -0.165
RPL3_P39023_336_GCVVGTK (UniProt P39023) | 0.152
RNF213_Q63HN8_1748_ASVGCGSEAAR (UniProt Q63HN8) | -0.243
RPL11_P62913_21_KLCLNICVGESGDR (UniProt P62913) | -0.297
RNH1_P13489_305+313_LLCETLLEPGCQLESLWVK (UniProt P13489) | -0.281
RNH1_P13489_277_GCGDLCR (UniProt P13489) | -0.502
RPL12_P30050_17_CTGGEVGATSALAPK (UniProt P30050) | 0.0114
RNH1_P13489_96_LSLQNCCLTGAGCGVLSSTLR (UniProt P13489) | -0.265
RNF41_Q9H4P4_134_DELPNHNCIK (UniProt Q9H4P4) | 0.272
RNF214_Q8ND24_655_SSHAPATCK (UniProt Q8ND24) | -0.471
